Measurements taken from patent US20050215582A1, “Substituted pyrrolopyridines” (priority 2002, published 2005).
Where a name gives a salt, the structure may show the parent alone. Some of these results come from one statement about several compounds together.

Biological target: T1, recombinant human Itk kinase domain fused with GST (Homo sapiens, UniProt Q08881)
T1 construct: recombinant human Itk kinase domain fused with GST; GST (Glutathione S-Transferase); made in house; host or cells: High five insect cells
T1 sequence (Q08881 363-615 limits assumed): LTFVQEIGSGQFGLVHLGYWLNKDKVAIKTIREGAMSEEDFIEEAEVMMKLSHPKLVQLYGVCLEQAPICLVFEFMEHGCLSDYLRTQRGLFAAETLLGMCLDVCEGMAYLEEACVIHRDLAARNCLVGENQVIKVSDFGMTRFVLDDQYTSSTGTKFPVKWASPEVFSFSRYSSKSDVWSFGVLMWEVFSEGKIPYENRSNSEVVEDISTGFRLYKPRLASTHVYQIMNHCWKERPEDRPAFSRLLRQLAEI
Test: Itk LANCE TRF Assay
Format: biochemical
Conditions: 50 μM ATP, 2 μM biotinylated peptide substrate, 50 minutes RT; read-out: IC50 values for inhibition of Itk activity
Method: The Itk kinase assay utilized recombinant human Itk kinase domain fused with GST (Glutathione S-Transferase). The protein was expressed in High five insect cells, purified in one step on an affinity chromatography glutathione column and stored in 50 mM Tris/HCl (pH 7.6), 150 mM NaCl, 5% (w/v) mannitol, 1 mM DTT, 30% glycerol at −70° C. The kinase substrate used in the assay was a biotinylated peptide derived from the Src-optimal substrate (Nair et at, J. Med. Chem., 38: 4276, 1995; biotin-AEEEIYGEFEAKKKK).
The assay additions were as follows: Test compounds (or controls; 1 μL in 100% DMSO) were added to black 96-well flat-bottomed plates (Greiner 655076) followed by 20 μL Itk in assay buffer and the reaction was started by adding 20 μL ATP and peptide substrate in assay buffer. The assay buffer constitution during phosphorylation was: 50 mM HEPES (pH 6.8), 10 mM MgCl2, 0.015% Brij 35, 1 mM DTT, 10% glycerol, 160 ng/well Itk, 2 μM peptide substrate and 50 μM ATP. The assay was stopped after 50 minutes (RT) by adding 150 μL ice-cold Stop solution (50 mM Tris/HCl, pH 7.5, 10 mM EDTA, 0.9% NaCl and 0.1% BSA) together with LANCE reagents (2 nM PT66-Eu^3+, Wallac AD0069 and 5 μg/ml Streptavidin-APC, Wallac AD0059. Both concentrations were final in stopped assay solution). The plates were measured on a Wallac 1420 Victor 2 instrument with TRF settings after 1 h incubation, and the ratio (665 signal/615 signal)*10000 was used to calculate the inhibition values. IC50 values were determined using XLfit.

CN(C)CCCOc1ccc(-c2[nH]c3ncc(Cl)cc3c2C2CC2)cc1 [Example 1, {3-[4-(5-Chloro-3-cyclopropyl-1H-pyrrolo[2,3-b]pyridin-2-yl)phenoxy]propyyl}dimethylamine]
IC50: < 25 µM

CN(C)CCCOc1ccc(-c2[nH]c3ncc(Cl)cc3c2C2=CCCCC2)cc1 [Example 2, {3-[4-(5-Chloro-3-cyclohex-1-en-1-yl-1H-pyrrolo[2,3-b]pyridin-2-yl)phenoxy]propyl}dimethylamine trifluoroacetate]
IC50: < 25 µM

Cc1cnc2[nH]c(-c3ccc(OCCCN(C)C)cc3)c(C3CCCN(C(=O)OC(C)(C)C)C3)c2c1 (stereo not shown) [Example 3, Tert-Butyl 3-(2-{4-[3-(dimethylamino)propoxy]phenyl}-5-methyl-1H-pyrrolo[2,3-b]pyridin-3-yl)piperidine-1-carboxylate]
IC50: < 25 µM

Cc1cnc2[nH]c(-c3ccco3)c(C3CCCN(C(N)=O)C3)c2c1 (stereo not shown) [Example 5, 3-[2-(2-Furyl)-5-methyl-1H-pyrrolo[2,3-b]pyridin-3-yl]piperidine-1-carboxamide]
IC50: < 25 µM

Clc1cnc2[nH]c(-c3cc[nH]c3)c(C3CCNCC3)c2c1 [Example 6, 5-Chloro-3-piperidin-4-yl-2-(1H-pyrrol-3-yl)-1H-pyrrolo[2,3-b]pyridine]
IC50: < 25 µM

CN(C)CCCOc1ccc(-c2[nH]c3ncc(Cl)cc3c2C2CCN(C(=O)OC(C)(C)C)CC2)cc1 [Example 7, Tert-Butyl 4-(5-chloro-2-{4-[3-(dimethylamino)propoxy]phenyl}-1H-pyrrolo[2,3-b]pyridin-3-yl)piperidine-1-carboxylate]
IC50: < 25 µM

CN(C)CCCOc1ccc(-c2[nH]c3ncc(Cl)cc3c2C2CCNCC2)cc1 [Example 8, {3-[4-(5-Chloro-3-piperidin-4-yl-1H-pyrrolo[2,3-b]pyridin-2-yl)phenoxy]propyl}dimethylamine]
IC50: < 25 µM

CN(C)CCCOc1ccc(-c2[nH]c3ncc(Cl)cc3c2C2CCN(S(C)(=O)=O)CC2)cc1 [Example 9, [3-(4-{5-Chloro-3-[1-(methylsulfonyl)piperidin-4-yl]-1H-pyrrolo[2,3-b]pyridin-2-yl}phenoxy)propyl]dimethylamine]
IC50: < 25 µM

CN(C)CCCOc1ccc(-c2[nH]c3ncc(Cl)cc3c2C2CCN(C=O)CC2)cc1 [Example 10, 4-(5-Chloro-2-{4-[3-(dimethylamino)propoxy]phenyl}-1H-pyrrolo[2,3-b]pyridin-3-yl)piperidine-1-carbaldehyde]
IC50: < 25 µM

CN(C)CCCOc1ccc(-c2[nH]c3ncc(Cl)cc3c2C2CCN(C(N)=O)CC2)cc1 [Example 11, 4-(5-Chloro-2-{4-[3-(dimethylamino)propoxy]phenyl}-1H-pyrrolo[2,3-b]pyridin-3-yl)piperidine-1-carboxamide]
IC50: < 25 µM

Cc1cnc2[nH]c(-c3ccc(OCCCN(C)C)cc3)c(C3CCCN(C(=O)N(C)C)C3)c2c1 (stereo not shown) [Example 12, 3-(2-{4-[3-(Dimethylamino)propoxy]phenyl}-5-methyl-1H-pyrrolo[2,3-b]pyridin-3-yl)-N,N-dimethylpiperidine-1-carboxamide]
IC50: < 25 µM

Cc1cnc2[nH]c(-c3ccc(OCCCN(C)C)cc3)c(C3CCCN(C(=O)NC(C)C)C3)c2c1 (stereo not shown) [Example 13]
IC50: < 25 µM

Cc1cnc2[nH]c(-c3ccc(OCCCN(C)C)cc3)c(C3CCCN(C(=O)N4CCCC4)C3)c2c1 (stereo not shown) [Example 14, Dimethyl[3-(4-{5-methyl-3-[1-(pyrrolidin-1-ylcarbonyl)piperidin-3-yl]-1H-pyrrolo[2,3-b]pyridin-2-yl}phenoxy)propyl]amine]
IC50: < 25 µM

Cc1cnc2[nH]c(-c3ccc(OCCCN(C)C)cc3)c(C3CCCN(S(=O)(=O)C(C)C)C3)c2c1 (stereo not shown) [Example 15, [3-(4-{3-[1-(Isopropylsulfonyl)piperidin-3-yl]-5-methyl-1H-pyrrolo[2,3-b]pyridin-2-yl}phenoxy)propyl]dimethylamine]
IC50: < 25 µM

CC(=O)N1CCCC(c2c(-c3ccc(OCCCN(C)C)cc3)[nH]c3ncc(C)cc23)C1 (stereo not shown) [Example 16, (3-{4-[3-(1-acetylpiperidin-3-yl)-5-methyl-1H-pyrrolo[2,3-b]pyridin-2-yl]phenoxy}propyl)dimethylamine]
IC50: < 25 µM

CNC(=S)N1CCCC(c2c(-c3ccc(OCCCN(C)C)cc3)[nH]c3ncc(C)cc23)C1 (stereo not shown) [Example 17, 3-(2-{4-[3-(Dimethylamino)propoxy]phenyl}-5-methyl-1H-pyrrolo[2,3-b]pyridin-3-yl)-N-methylperidine-1-carbothioamide]
IC50: < 25 µM

Cc1cnc2[nH]c(-c3ccc(OCCCN(C)C)cc3)c(C3CCCN(S(=O)(=O)CCN4C(=O)c5ccccc5C4=O)C3)c2c1 (stereo not shown) [Example 18, 2-(2-{[3-(2-[4-[3-(Dimethylamino)propoxy]phenyl}-5-methyl-1H-pyrrolo[2,3-b]pyridin-3-yl)piperidin-1-yl]sulfonyl]ethyl)-1H-isoindole-1,3(2H)-dione]
IC50: < 25 µM

Cc1cnc2[nH]c(-c3ccc(OCCCN(C)C)cc3)c(C3CCCN(C4CC(=O)NC4=O)C3)c2c1 (stereo not shown) [Example 19]
IC50: < 25 µM

Cc1cnc2[nH]c(-c3ccc(OCCCN(C)C)cc3)c(C3CCCN(S(C)(=O)=O)C3)c2c1 (stereo not shown) [Example 20, Dimethyl[3-(4-{5-methyl-3-[1-(methylsulfonyl)piperidin-3-yl]-1H-pyrrolo[2,3-b]pyridin-2-yl}phenoxy)propyl]amine]
IC50: < 25 µM

COc1ccc(-c2[nH]c3ncc(Br)cc3c2N2CCNCC2)cc1 [Example 21, 5-Bromo-2-(4-methoxy-phenyl)-3-piperazin-1-yl-1H-pyrrolo[2,3-b]pyridine trifluoroacetate]
IC50: < 25 µM

COc1ccc(-c2[nH]c3ncc(Br)cc3c2N2CCN(C)CC2)cc1 [Example 22, 5-Bromo-2-(4-methoxpyhenyl)-3-(4-methylpiperazin-1-yl)-1H-pyrrolo[2,3-b]pyridine]
IC50: < 25 µM

COc1ccc(-c2[nH]c3ncc(Br)cc3c2N2CCN(C(=O)OC(C)(C)C)CC2)cc1 [Example 23, 4-[5-Bromo-2-(4-methoxy-phenyl)-1H-pyrrolo[2,3-b]pyridin-3-yl]-piperazine-1-carboxylic acid tert-butyl ester bis-trifluoroacetate]
IC50: < 25 µM

Brc1cnc2[nH]c(-c3ccccc3)c(N3CCOCC3)c2c1 [Example 24, 5-Bromo2-(4-methoxyphenyl)-3-morpholin-4-yl-1H-pyrrolo[2,3-b]pyridine]
IC50: < 25 µM

COc1ccc(-c2[nH]c3ncc(Br)cc3c2N2CCN(S(C)(=O)=O)CC2)cc1 [Example 25, 5-Bromo-3-(4-methanesulfonylpiperazin-1-yl)-2-(4-methoxy-phenyl)-1H-pyrrolo[2,3-b]pyridine]
IC50: < 25 µM

COc1ccc(-c2[nH]c3ncc(Br)cc3c2N2CCN(C=O)CC2)cc1 [Example 26, 4-[5-Bromo-2-(4-methoxy-phenyl)-1H-pyrrolo[2,3-b]pyridin-3-yl]-piperazine-1-carbaldehyde]
IC50: < 25 µM
